Results as given in PMC5342496.
Results are given in words; binding and its absence hold for the method and conditions named. In cells and extracts the contact can be indirect. Some results given as binding are weak or reduced against the parent protein; the word gives no strength.

By UniProt entry, the sequences of proteins in these tests, tags left out.
UniProt P17480: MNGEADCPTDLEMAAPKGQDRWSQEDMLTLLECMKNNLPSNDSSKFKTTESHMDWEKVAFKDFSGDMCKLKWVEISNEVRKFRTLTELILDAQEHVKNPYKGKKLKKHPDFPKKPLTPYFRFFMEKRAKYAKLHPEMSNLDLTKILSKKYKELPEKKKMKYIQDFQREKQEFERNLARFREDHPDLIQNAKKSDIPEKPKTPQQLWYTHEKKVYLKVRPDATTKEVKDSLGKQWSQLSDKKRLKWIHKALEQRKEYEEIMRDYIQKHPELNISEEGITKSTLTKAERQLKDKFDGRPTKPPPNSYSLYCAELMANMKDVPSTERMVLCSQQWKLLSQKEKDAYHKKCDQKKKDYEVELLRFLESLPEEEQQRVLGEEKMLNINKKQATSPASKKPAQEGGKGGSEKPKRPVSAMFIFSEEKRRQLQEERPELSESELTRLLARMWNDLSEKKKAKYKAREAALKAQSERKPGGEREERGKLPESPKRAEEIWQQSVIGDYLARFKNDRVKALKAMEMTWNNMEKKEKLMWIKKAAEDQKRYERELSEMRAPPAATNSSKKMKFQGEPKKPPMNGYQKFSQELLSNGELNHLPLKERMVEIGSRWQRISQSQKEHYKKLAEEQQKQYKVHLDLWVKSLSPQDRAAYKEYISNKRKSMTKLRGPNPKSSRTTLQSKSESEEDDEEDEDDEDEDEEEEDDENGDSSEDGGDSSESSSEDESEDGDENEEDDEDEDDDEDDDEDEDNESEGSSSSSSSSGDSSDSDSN
UniProt Q05195: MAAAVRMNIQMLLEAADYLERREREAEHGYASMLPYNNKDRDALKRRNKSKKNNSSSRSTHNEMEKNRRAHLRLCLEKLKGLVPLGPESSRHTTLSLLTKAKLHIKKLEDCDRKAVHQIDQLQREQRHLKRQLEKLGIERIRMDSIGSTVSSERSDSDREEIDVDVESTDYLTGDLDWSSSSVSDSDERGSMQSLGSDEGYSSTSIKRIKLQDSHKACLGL

Assays:
UBF-Flag = UBF-Flag (UniProt P17480); assay: co-IP; cells transfected with UBF-Flag expression vector; data not shown
[1] = biological target: UBF (Upstream Binding Factor) (human (endogenous in HeLa)) (UniProt P17480); assay: co-IP; lysates of HeLa cells serum-deprived for 48 h; immunoprecipitation with anti-UBF antibodies, immunoblot against MXD1 and UBF
[2] = biological target: UBF (Upstream Binding Factor) (human (endogenous in HeLa)) (UniProt P17480); assay: proximity ligation; in situ PLA (Duolink in situ Red Starter kit Mouse/Rabbit) in growing HeLa cells with pairs of primary antibodies; signals per nucleus quantified with ImageJ

Measured: binding

MXD1 (from UniProt Q05195 1-221)
binds: all assays above
